# PubChem BioAssay AID192 (DTP/NCI, 2004)
# The list shows only some results of the screen, not a fair sample: it gathers tests that were run many times, whatever their T/C, doses with no T/C, and many T/C values between a quarter and a half above the control. Further doses and runs are listed elsewhere. T/C gives the treated animals as a percentage of the vehicle group. Some doses have a count of surviving animals in place of a T/C: the source holds a T/C of zero for them, seemingly a mark for toxic or unscored doses. Some survivor counts are full or nearly so, which does not show that the dose was tolerated: the source hardly ever lists a survival T/C far under the control, and the zero likely stands for such cases as well. Survivors were counted at the toxicity check, usually on the fifth day, unless a day is given; later deaths do not show. Schedule codes are those of the source, read here as Q, the interval in days (D) or hours (H), X, the number of doses. Some entries hold several experiments; their values stand side by side, smallest first. Where survival is the endpoint, the PubChem record calls one and a half times the control and up active, and a quarter to a half above the control has no call in these data; cut-offs in other NCI protocols can differ. Some T/C values carry the count of animals alive at the toxicity check (mostly the fifth day); where none is given, no animal had died by that day.
# Tested on: BDF1 mice, B16 melanoma ip, median survival T/C
# Test: NCI In Vivo Anticancer Drug Screen. Data for tumor model B16 Melanoma (intraperitoneal) in B6D2F1 (BDF1) mice
# Details: T/C endpoint: median survival time, higher T/C = longer survival
# In short: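 Transplantable tumor model; survival or tumor size measured; reported as T/C, treated over vehicle control.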
# [1] = dose: 100.0 mg/kg/injection, schedule: Q04DX003 (ip), vehicle: saline
# [2] = dose: 200.0 mg/kg/injection, schedule: Q04DX003 (ip), vehicle: saline
# [3] = dose: 400.0 mg/kg/injection, schedule: Q04DX003 (ip), vehicle: saline
# [4] = dose: 200.0 mg/kg/injection, schedule: Q01DX009 (ip), vehicle: Klucel (hydroxypropylcellulose) (HPC)
# [5] = dose: 400.0 mg/kg/injection, schedule: Q01DX009 (ip), vehicle: Klucel (hydroxypropylcellulose) (HPC)
# [6] = dose: 25.0 mg/kg/injection, schedule: Q01DX009 (ip), vehicle: Klucel (hydroxypropylcellulose) (HPC)
# [7] = dose: 100.0 mg/kg/injection, schedule: Q01DX009 (ip), vehicle: Klucel (hydroxypropylcellulose) (HPC)
# [8] = dose: 50.0 mg/kg/injection, schedule: Q01DX009 (ip), vehicle: saline
# [9] = dose: 100.0 mg/kg/injection, schedule: Q01DX009 (ip), vehicle: saline
# [10] = dose: 200.0 mg/kg/injection, schedule: Q01DX009 (ip), vehicle: saline
# [11] = dose: 400.0 mg/kg/injection, schedule: Q01DX009 (ip), vehicle: saline
# [12] = dose: 100.0 mg/kg/injection, schedule: Q01DX009 (ip), vehicle: saline with Tween-80
# [13] = dose: 200.0 mg/kg/injection, schedule: Q01DX009 (ip), vehicle: saline with Tween-80
# [14] = dose: 400.0 mg/kg/injection, schedule: Q01DX009 (ip), vehicle: saline with Tween-80
# [15] = dose: 150.0 mg/kg/injection, schedule: Q01DX009 (ip), vehicle: saline
# [16] = dose: 50.0 mg/kg/injection, schedule: Q01DX009 (ip), vehicle: saline with Tween-80
structure (smiles),measurement,setting,value
Cn1c(N)c(N=O)c(=O)n(C)c1=O,survivor count,"dose: 720.0 mg/kg/injection, schedule: Q01DX009 (ip), vehicle: saline with Tween-80",5 of 10
COc1ccc2nc3cc(Cl)ccc3c(Nc3ccc(O)c(CN(CCCl)CCCl)c3)c2c1,T/C,"dose: 2.0 mg/kg/injection, schedule: Q01DX009 (ip), vehicle: saline",137 % of control
COc1cc2cc(c1Cl)N(C)C(=O)CC(OC(=O)C(C)N(C)C(=O)C(C)C)C1(C)OC1C(C)C1CC(O)(NC(=O)O1)C(OC)/C=C/C=C(C)C2 (stereo not drawn),T/C,"dose: 1.3 micrograms/kg/injection, schedule: Q01DX009 (ip), vehicle: saline + alcohol",126 % of control
same,T/C,"dose: 2.5 micrograms/kg/injection, schedule: Q01DX009 (ip), vehicle: saline + alcohol",145 % of control
C=C(C)C(=O)O[C@H]1CC2=C[C@@H](C[C@@]3(C)O[C@@H]3[C@H]3OC(=O)C(=C)[C@@H]31)OC2=O,survivor count,"dose: 30.0 mg/kg/injection, schedule: Q01DX009 (ip), vehicle: Klucel (hydroxypropylcellulose) (HPC)",5 of 10
same,survivor count,"dose: 60.0 mg/kg/injection, schedule: Q01DX009 (ip), vehicle: Klucel (hydroxypropylcellulose) (HPC)",0 of 10
CC(NC(=O)c1ccccc1)C(=O)NC(CSC(c1ccccc1)c1ccccc1)C(=O)O (stereo not drawn),survivor count,[1],7 of 10
same,survivor count,[2],3 of 10
same,survivor count,[3],0 of 10
Cc1ccc(NC(=S)NC(Cc2ccccc2)c2ccccc2)c(C)c1 (stereo not drawn),survivor count,[4],10 of 10
same,survivor count,[5],10 of 10
Nc1ccccc1SC1CC(=O)N(c2cccc3ccccc23)C1=O (stereo not drawn),survivor count,"dose: 1.56 mg/kg/injection, schedule: Q01DX009 (ip), vehicle: Klucel (hydroxypropylcellulose) (HPC)",10 of 10
same,survivor count,"dose: 3.12 mg/kg/injection, schedule: Q01DX009 (ip), vehicle: Klucel (hydroxypropylcellulose) (HPC)",10 of 10
same,survivor count,[6],10 of 10
same,survivor count,"dose: 50.0 mg/kg/injection, schedule: Q01DX009 (ip), vehicle: Klucel (hydroxypropylcellulose) (HPC)",10 of 10
same,survivor count,[4],10 of 10
same,survivor count,[5],8 of 10
Cc1c(Cl)cccc1NC(=O)COc1ccc(Cl)cc1,survivor count,"dose: 75.0 mg/kg/injection, schedule: Q01DX009 (ip), vehicle: Klucel (hydroxypropylcellulose) (HPC)",10 of 10
same,survivor count,"dose: 150.0 mg/kg/injection, schedule: Q01DX009 (ip), vehicle: Klucel (hydroxypropylcellulose) (HPC)",10 of 10
same,survivor count,"dose: 300.0 mg/kg/injection, schedule: Q01DX009 (ip), vehicle: Klucel (hydroxypropylcellulose) (HPC)",10 of 10
c1cc[c]([Sn][c]2ccccc2)cc1,T/C,"dose: 1.25 mg/kg/injection, schedule: Q04DX003 (ip), vehicle: saline with Tween-80",130 % of control [9 of 10 alive]
O=c1[nH]/c(=C\c2ccc3c(c2)OCO3)c(=O)[nH]/c1=C\c1ccc2c(c1)OCO2,survivor count,[4],10 of 10
same,survivor count,[5],10 of 10
Cc1cnccc1Br,survivor count,"dose: 100.0 mg/kg/injection, schedule: Q01DX009 (ip), vehicle: water",10 of 10
same,survivor count,"dose: 200.0 mg/kg/injection, schedule: Q01DX009 (ip), vehicle: water",10 of 10
CC(=O)OCC1OC(OC2=C(CC=C(C)C)C(=O)c3ccccc3C2=O)C(OC(C)=O)C(OC(C)=O)C1OC(C)=O (stereo not drawn),survivor count,"dose: 12.5 mg/kg/injection, schedule: Q01DX009 (ip), vehicle: Klucel (hydroxypropylcellulose) (HPC)",10 of 10
same,survivor count,[6],10 of 10
same,survivor count,[7],10 of 10
same,survivor count,[4],6 of 10
Clc1ccc2c(c1)/C(=C/c1ccc3c(c1)OCO3)c1cc(Cl)cc(Cl)c1-2,survivor count,[8],6 of 6
same,survivor count,[9],6 of 6
same,survivor count,[10],6 of 6
same,survivor count,[11],6 of 6
COc1c(Cl)c2c(c(OC)c1OC)-c1ccc(OC)c(=O)cc1C(NC(C)=O)CC2 (stereo not drawn),T/C,"dose: 0.38 mg/kg/injection, schedule: Q01DX009 (ip), vehicle: Klucel (hydroxypropylcellulose) (HPC)",127 % of control
same,T/C,"dose: 0.75 mg/kg/injection, schedule: Q01DX009 (ip), vehicle: Klucel (hydroxypropylcellulose) (HPC)",126 % of control
same,T/C,"dose: 1.5 mg/kg/injection, schedule: Q01DX009 (ip), vehicle: Klucel (hydroxypropylcellulose) (HPC)",125 and 142 % of control
same,survivor count,"dose: 3.0 mg/kg/injection, schedule: Q01DX009 (ip), vehicle: Klucel (hydroxypropylcellulose) (HPC)",10 of 10
same,survivor count,"dose: 6.0 mg/kg/injection, schedule: Q01DX009 (ip), vehicle: Klucel (hydroxypropylcellulose) (HPC)",10 of 10
CC(C)CC(NC(=O)OC(C)(C)C)C(=O)ON1C(=O)CCC1=O (stereo not drawn),survivor count,[12],9 of 10
same,survivor count,[13],1 of 10
same,survivor count,[14],0 of 10
CC1(C)N=C(N)N=C(N)N1c1ccc(OCC(=O)Nc2ccc(S(=O)(=O)F)cc2)c(Cl)c1,T/C,[2],137 % of control
same,survivor count,[3],6 of 6
COC(=O)NC1C(C)OC(OC2C/C=C(/C)C3C=CC4C(OC5CC(OC6CCC(OC7CC(O)C(OC8CCC(O)C(C)O8)C(C)O7)C(C)O6)C(OC(C)=O)C(C)O5)C(C)CC(C)C4C3(C)/C(O)=C3/C(=O)OC4(CC(C=O)=CC(O)C4/C=C\2C)C3=O)CC1(C)[N+](=O)[O-] (stereo not drawn),T/C,"dose: 1.25 mg/kg/injection, schedule: Q01DX009 (ip), vehicle: water",129 % of control
same,survivor count,"dose: 20.0 mg/kg/injection, schedule: Q01DX009 (ip), vehicle: water",5 of 10
COc1ccc(NC(=O)Nc2ccccc2Cl)cc1,survivor count,[7],10 of 10
same,survivor count,[4],10 of 10
same,survivor count,[5],10 of 10
O=C(O)C(CSC(c1ccccc1)(c1ccccc1)c1ccccc1)N=Cc1cccs1 (stereo not drawn),T/C,[8],134 % of control
same,survivor count,[9],10 of 10
same,survivor count,[10],10 of 10
same,survivor count,[11],4 of 10
O=C1C(Cl)=C(N=Nc2c(Cl)c(O)c3ccccc3c2O)C(=O)c2ccccc21,survivor count,[8],6 of 6
same,survivor count,[9],5 of 6
O=[N+]([O-])c1ccc(S(=O)(=O)O)c([N+](=O)[O-])c1.[Ag],survivor count,"dose: 50.0 mg/kg/injection, schedule: Q04DX003 (ip), vehicle: DMSO",1 of 10
CCS(=O)(=O)C(Br)CBr (stereo not drawn),survivor count,[7],7 of 10
same,survivor count,[4],0 of 10
same,survivor count,[5],0 of 10
O=C1NC(=O)C([N+](=O)[O-])=C(O)C1=O,survivor count,"dose: 300.0 mg/kg/injection, schedule: Q04DX003 (ip), vehicle: other",10 of 10
CCN(CCCCO)CCc1c[nH]c2ccc(OC)cc12,survivor count,[15],4 of 10
C#CCSC(=S)NNc1ccccc1,T/C,[16],128 % of control
CC1C2CC3C(OC(=O)C13)C2I (stereo not drawn),survivor count,[14],4 of 10
NNC(=O)c1ccc(Cl)cc1Nc1ccc(F)cc1,survivor count,[1],9 of 10
same,survivor count,[2],0 of 10
same,survivor count,[3],0 of 10
COC1C(CO)OC(n2cnc3c(=S)nc(N)[nH]c32)C1O (stereo not drawn),T/C,[7],125 % of control
same,survivor count,[4],10 of 10
same,survivor count,[5],9 of 10
COc1ccc(-c2csc(=[N+]3CCCCC3)s2)cc1,survivor count,"dose: 50.0 mg/kg/injection, schedule: Q01DX009 (ip), vehicle: water",0 of 10 and 1 of 10
CC(C)(C)C(=O)C1C(=O)c2ccccc2C1=O,survivor count,"dose: 0.5 mg/kg/injection, schedule: Q01DX009 (ip), vehicle: Klucel (hydroxypropylcellulose) (HPC)",10 of 10
same,survivor count,"dose: 1.0 mg/kg/injection, schedule: Q01DX009 (ip), vehicle: Klucel (hydroxypropylcellulose) (HPC)",5 of 10
O=C(O)c1ccc(C(Cl)(Cl)Cl)cc1,survivor count,[13],8 of 10
CC(C)CN(CC(C)C)c1ccc([N+](=O)[O-])cc1[N+](=O)[O-],survivor count,[16],10 of 10
same,survivor count,[12],10 of 10
same,survivor count,[13],10 of 10
Cc1cc(CN)c(C)cc1CN,survivor count,"dose: 67.0 mg/kg/injection, schedule: Q01DX009 (ip), vehicle: saline",10 of 10
same,survivor count,[9],10 of 10
same,survivor count,[15],10 of 10
